Results reported in patent US10654813B2 (CENTRE NATIONAL DE LA RECHERCHE SCIENTIFIQUE, priority 2008, dated 2020).
The name of at least one read-out is uncertain.

Test system: HIV-1
Assay: One-round infection luciferase assay in HOS-CD4+-CCR5+ cells exposed to defective HIV-1 virions (nef/luc)
Format: cell-based
Conditions: AZT control 50 μm
Description: For this purpose, we exposed HOS-CD4^+-CCR5^+ cells to defective virions obtained by cotransfecting 293T cells with a plasmid encoding the R5 envelope of the AD8 strain and another plasmid containing the entire HIV-1 genome mutated in the envelope gene and harbouring a luciferase marker gene fused to nef (Connor R I, Chen B K, Choe S, Landau N R. (1995) Vpr is required for efficient replication of human immunodeficiency virus type-1 in mononuclear phagocytes. Virology 206: 935-944). The amounts of luciferase activity in cells infected with these virions reflect both the number of integrated proviruses and expression of multiply spliced species encoding nef/luc. Two days post-infection, luciferase activity in HOS-CD4+-CCR5+ infected cells was measured.

Cc1cn([C@H]2C[C@H](N=[N+]=[N-])[C@@H](CO)O2)c(=O)[nH]c1=O [AZT, 3′-azido-3′-deoxythymidine, reference compound]
% of luciferase inhibition: 39.5%
